Assay results published in the supplement of paper PMC10849652.
This is one part of the list.

By UniProt entry, the sequences of proteins in these tests, tags left out. Where a name states a change or a piece, a line headed by the entry shows the natural chain unless it says otherwise.
UniProt Q96QF0: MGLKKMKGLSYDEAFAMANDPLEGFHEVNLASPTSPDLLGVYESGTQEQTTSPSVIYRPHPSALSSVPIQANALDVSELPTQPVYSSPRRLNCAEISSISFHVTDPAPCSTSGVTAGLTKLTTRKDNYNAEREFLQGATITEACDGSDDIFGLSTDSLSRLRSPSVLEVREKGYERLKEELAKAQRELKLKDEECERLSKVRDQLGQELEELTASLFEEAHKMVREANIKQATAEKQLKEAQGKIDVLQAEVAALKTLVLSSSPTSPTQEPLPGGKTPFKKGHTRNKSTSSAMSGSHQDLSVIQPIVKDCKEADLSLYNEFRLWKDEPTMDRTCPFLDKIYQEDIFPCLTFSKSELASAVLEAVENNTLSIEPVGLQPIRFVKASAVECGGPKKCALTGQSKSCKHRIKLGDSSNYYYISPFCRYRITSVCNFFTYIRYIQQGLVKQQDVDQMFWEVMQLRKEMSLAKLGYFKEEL
UniProt P20340: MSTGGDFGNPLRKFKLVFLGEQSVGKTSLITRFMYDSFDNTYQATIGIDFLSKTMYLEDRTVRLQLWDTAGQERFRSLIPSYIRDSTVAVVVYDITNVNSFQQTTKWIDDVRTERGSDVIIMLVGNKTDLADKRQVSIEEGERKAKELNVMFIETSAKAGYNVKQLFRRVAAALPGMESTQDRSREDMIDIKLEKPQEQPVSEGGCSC
UniProt Q86YS6: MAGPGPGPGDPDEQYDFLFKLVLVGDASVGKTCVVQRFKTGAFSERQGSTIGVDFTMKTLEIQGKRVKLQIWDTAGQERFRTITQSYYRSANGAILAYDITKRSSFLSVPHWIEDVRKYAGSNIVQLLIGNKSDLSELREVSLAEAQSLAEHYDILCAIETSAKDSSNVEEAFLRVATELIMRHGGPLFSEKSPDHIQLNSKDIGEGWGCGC
UniProt Q86X10: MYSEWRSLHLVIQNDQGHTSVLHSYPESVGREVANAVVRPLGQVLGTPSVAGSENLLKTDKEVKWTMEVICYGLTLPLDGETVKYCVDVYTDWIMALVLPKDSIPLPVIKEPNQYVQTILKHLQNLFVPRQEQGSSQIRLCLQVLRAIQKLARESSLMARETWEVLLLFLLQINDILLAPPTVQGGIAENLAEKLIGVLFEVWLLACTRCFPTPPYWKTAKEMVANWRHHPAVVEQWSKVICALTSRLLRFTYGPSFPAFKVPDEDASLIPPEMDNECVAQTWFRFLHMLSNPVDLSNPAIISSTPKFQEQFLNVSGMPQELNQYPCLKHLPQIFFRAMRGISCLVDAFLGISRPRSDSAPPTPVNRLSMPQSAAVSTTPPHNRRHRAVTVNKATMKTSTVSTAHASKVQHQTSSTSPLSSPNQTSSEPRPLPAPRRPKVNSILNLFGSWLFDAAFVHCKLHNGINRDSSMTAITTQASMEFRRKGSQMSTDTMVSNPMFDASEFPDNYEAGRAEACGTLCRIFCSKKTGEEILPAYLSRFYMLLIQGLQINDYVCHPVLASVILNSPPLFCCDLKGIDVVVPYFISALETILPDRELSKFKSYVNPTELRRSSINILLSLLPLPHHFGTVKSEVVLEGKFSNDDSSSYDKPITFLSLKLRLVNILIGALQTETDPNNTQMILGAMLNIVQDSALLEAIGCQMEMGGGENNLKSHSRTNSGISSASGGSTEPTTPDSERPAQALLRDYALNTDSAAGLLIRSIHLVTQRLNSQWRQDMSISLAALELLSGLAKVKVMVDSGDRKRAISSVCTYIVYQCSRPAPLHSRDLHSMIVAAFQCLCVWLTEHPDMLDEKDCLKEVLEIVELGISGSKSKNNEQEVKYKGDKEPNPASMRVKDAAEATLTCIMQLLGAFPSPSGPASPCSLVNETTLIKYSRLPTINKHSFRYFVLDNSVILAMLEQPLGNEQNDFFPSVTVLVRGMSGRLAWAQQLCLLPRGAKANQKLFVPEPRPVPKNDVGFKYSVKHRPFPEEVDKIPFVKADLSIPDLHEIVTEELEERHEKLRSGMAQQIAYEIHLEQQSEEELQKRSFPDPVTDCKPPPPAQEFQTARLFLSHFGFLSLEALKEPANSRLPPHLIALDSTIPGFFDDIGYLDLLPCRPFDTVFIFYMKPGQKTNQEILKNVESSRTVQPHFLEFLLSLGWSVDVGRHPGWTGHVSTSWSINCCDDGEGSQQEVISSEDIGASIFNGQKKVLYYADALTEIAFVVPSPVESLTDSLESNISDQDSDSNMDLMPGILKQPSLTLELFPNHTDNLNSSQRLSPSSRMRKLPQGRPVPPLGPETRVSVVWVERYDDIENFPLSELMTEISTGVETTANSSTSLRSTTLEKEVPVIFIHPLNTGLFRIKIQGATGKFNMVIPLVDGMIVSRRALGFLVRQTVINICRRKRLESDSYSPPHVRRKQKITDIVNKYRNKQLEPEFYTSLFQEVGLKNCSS
UniProt P61106, whole entry, looked up: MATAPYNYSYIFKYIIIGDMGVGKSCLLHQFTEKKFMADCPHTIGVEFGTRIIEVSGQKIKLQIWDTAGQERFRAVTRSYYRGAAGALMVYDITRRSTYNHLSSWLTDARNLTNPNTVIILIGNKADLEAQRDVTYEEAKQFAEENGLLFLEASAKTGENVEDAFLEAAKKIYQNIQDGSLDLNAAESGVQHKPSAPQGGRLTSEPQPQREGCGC
UniProt P61018: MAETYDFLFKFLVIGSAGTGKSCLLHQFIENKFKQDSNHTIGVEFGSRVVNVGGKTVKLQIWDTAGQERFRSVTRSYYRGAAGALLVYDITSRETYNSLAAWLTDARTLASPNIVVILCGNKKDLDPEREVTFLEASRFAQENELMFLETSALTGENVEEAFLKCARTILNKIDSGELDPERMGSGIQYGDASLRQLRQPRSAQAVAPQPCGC
UniProt Q96E17: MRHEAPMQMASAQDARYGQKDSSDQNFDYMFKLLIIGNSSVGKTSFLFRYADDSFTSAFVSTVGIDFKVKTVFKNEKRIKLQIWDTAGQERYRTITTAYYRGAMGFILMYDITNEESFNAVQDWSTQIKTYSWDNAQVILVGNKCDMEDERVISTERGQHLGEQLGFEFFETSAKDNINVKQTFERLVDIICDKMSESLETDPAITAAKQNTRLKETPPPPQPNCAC
UniProt Q8TEU7: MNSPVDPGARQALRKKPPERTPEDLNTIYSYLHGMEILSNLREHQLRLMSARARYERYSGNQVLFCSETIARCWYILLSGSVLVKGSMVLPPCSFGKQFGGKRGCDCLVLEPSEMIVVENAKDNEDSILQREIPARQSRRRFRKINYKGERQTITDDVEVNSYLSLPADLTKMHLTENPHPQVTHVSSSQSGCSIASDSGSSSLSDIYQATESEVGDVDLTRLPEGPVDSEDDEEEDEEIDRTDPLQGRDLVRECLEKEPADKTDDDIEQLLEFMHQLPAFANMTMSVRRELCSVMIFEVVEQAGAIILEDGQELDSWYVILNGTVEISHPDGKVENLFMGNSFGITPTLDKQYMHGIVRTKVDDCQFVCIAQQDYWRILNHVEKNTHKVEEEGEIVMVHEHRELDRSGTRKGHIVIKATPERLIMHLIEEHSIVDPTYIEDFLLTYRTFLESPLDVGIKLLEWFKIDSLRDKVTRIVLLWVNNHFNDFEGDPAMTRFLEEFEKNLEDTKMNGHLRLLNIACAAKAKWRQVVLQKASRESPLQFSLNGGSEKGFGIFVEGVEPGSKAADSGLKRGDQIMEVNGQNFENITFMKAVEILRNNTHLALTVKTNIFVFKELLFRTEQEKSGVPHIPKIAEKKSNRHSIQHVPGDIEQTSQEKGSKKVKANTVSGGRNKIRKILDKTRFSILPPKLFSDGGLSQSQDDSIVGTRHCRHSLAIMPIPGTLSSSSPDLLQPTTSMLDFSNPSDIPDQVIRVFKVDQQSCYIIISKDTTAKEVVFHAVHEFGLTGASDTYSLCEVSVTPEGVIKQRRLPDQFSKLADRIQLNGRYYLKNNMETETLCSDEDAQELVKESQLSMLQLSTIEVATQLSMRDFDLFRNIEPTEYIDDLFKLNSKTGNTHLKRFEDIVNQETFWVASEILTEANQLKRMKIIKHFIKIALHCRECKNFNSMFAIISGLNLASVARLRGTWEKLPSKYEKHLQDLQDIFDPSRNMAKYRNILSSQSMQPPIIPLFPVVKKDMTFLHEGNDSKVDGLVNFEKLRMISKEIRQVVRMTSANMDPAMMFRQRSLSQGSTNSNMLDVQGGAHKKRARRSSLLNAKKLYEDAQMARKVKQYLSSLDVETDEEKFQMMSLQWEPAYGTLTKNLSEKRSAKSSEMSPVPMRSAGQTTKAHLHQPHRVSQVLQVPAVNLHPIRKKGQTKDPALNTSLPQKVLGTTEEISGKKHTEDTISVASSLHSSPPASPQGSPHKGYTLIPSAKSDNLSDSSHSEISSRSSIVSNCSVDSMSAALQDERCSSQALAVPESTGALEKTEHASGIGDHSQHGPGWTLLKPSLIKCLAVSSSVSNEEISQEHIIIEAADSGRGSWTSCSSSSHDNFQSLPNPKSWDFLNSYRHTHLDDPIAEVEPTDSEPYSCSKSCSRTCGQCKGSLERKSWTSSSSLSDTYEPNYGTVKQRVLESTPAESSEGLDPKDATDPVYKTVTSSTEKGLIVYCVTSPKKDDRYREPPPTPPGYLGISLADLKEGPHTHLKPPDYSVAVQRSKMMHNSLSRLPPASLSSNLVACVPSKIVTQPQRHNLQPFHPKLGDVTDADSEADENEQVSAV
UniProt Q15283: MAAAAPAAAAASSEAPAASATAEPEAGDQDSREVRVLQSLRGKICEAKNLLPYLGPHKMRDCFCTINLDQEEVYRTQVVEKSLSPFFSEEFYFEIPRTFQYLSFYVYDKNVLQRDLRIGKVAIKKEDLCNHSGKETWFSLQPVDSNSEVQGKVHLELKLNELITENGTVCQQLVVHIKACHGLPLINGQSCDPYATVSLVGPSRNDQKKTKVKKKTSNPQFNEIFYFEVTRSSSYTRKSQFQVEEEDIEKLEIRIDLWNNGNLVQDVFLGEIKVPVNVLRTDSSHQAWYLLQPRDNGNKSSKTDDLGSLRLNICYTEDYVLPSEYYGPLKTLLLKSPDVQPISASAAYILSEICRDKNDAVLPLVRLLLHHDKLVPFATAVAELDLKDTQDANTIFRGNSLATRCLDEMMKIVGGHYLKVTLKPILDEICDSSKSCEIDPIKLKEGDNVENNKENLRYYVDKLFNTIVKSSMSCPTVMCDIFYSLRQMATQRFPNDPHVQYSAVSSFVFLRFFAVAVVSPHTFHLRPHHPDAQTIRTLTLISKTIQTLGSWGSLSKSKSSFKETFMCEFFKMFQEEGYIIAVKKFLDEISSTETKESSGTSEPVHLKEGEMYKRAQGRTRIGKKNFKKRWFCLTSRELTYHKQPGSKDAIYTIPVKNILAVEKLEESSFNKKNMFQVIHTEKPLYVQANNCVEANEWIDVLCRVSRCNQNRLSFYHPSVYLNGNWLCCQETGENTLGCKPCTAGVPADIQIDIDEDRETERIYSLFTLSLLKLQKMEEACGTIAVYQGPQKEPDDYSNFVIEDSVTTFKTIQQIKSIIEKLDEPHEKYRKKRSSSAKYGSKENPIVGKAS
UniProt P61019: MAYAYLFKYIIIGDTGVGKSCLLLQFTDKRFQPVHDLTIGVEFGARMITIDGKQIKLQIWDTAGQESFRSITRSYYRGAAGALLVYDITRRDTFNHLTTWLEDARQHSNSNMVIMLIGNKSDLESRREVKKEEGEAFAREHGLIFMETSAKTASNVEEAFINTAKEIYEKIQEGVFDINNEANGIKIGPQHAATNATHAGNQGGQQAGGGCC
UniProt Q15286: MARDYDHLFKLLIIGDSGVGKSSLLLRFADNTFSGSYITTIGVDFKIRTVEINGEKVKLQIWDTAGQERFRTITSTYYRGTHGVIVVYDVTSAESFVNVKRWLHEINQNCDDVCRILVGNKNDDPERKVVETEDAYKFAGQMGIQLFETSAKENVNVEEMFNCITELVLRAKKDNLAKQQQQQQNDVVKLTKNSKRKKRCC
UniProt Q96B01: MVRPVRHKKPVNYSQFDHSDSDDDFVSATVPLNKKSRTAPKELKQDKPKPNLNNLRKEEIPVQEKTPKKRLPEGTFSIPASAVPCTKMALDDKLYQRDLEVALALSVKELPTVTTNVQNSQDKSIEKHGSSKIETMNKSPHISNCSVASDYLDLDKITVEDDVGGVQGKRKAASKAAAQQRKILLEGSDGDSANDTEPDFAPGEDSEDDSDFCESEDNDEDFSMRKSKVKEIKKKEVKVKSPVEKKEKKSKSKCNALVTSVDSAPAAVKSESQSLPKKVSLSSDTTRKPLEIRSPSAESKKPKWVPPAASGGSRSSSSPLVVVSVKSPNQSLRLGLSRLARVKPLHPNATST
UniProt P51151: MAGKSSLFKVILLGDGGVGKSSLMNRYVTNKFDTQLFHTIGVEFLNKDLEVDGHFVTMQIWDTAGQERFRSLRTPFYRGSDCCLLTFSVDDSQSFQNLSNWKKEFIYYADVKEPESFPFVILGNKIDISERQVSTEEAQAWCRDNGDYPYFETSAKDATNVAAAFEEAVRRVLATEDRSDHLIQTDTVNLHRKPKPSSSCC
UniProt Q8N0T1: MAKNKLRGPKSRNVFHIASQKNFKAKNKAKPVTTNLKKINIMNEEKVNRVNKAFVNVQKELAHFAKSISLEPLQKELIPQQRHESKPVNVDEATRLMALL

How the values were obtained:
Assay in all cases: log2 fold change, soluble protein after heating vs DMSO (PISA); higher = thermal stabilisation; K562 cells, 10 uM, 30 min; active = over 0.2 and 3.5 SD of the protein, either way, in both replicates (recomputed)
[1] = compound: CS(=O)(=O)c1ccc(-c2cnc(N)c(C(=O)Nc3ccccc3)n2)cc1
In short: (§1)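 Soluble protein was quantified by TMTpro 16plex LC-MS/MS after channel sums were equalised. It was obtained as the supernatant after 21,000xg for 90 min from pooled aliquots of K562 cells (2×10^6 cells/mL, 10 μM compound, 30 min) heated for 3 min across 48°C-58°C and extracted in PBS with 0.5% NP-40 at 4°C. Thermal stability values are relative to control samples and come from duplicates. They are given as log2 fold changes.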

crizotinib = compound: C[C@@H](Oc1cc(-c2cnn(C3CCNCC3)c2)cnc1N)c1c(Cl)ccc(F)c1Cl [crizotinib]
In short: as §1

[2] = compound: C[C@@H]1COCCN1C2=NC(=NC(=C2)C3(CC3)S(=O)(=O)C)C4=C5C=CNC5=CC=C4
In short: as §1

[3] = compound: C[C@H](C1=CC=C(C=C1)C(=O)NC2=C3C=CNC3=NC=C2)N
In short: as §1

duvelisib = compound: C[C@H](Nc1ncnc2nc[nH]c12)c1cc2cccc(Cl)c2c(=O)n1-c1ccccc1 [duvelisib]
In short: as §1

gandotinib = compound: Cc1cc(Nc2cc(CN3CCOCC3)c3nc(C)c(Cc4ccc(Cl)cc4F)n3n2)n[nH]1 [gandotinib]
In short: as §1

tozasertib = compound: Cc1cc(Nc2cc(N3CCN(C)CC3)nc(Sc3ccc(NC(=O)C4CC4)cc3)n2)n[nH]1 [tozasertib]
In short: as §1

[4] = compound: Cc1cc(SCc2sc(-c3ccc(C(F)(F)F)cc3)nc2C)ccc1OCC(=O)O
In short: as §1

doramapimod = compound: Cc1ccc(-n2nc(C(C)(C)C)cc2NC(=O)Nc2ccc(OCCN3CCOCC3)c3ccccc23)cc1 [doramapimod]
In short: as §1

ispinesib = compound: Cc1ccc(C(=O)N(CCCN)[C@@H](c2nc3cc(Cl)ccc3c(=O)n2Cc2ccccc2)C(C)C)cc1 [ispinesib]
In short: as §1

Measured: log2 fold change

RAB3IP (UniProt Q96QF0)
inactive: [1] 0.016 | crizotinib 0.211 | [2] 0.139 | [3] -0.233 | duvelisib 0.09 | gandotinib -0.095 | tozasertib 0.047 | [4] -0.008 | doramapimod -0.245 | ispinesib 0.007

RBM3 (UniProt P98179)
inactive: [1] -0.122 | crizotinib 0.012 | [2] -0.55 | [3] 0.105 | duvelisib -0.12 | gandotinib 0.177 | tozasertib -0.003 | [4] 0.023 | doramapimod -0.002 | ispinesib -0.208

RACK1 (UniProt D6RF23)
inactive: [1] 0.119 | crizotinib 0 | [2] 0.047 | [3] 0.361 | duvelisib 0.168 | gandotinib -0.207 | tozasertib -0.188 | [4] -0.125 | doramapimod 0.024 | ispinesib -0.185

RAB6A isoform 2 (UniProt P20340)
inactive: [1] 0.024 | crizotinib 0.127 | [2] -0.057 | [3] -0.004 | duvelisib 0.027 | gandotinib -0.06 | tozasertib -0.024 | [4] -0.04 | doramapimod -0.024 | ispinesib 0.086

RBM27 (UniProt Q9P2N5)
inactive: [1] 0.006 | crizotinib 0.021 | [2] 0.026 | [3] -0.174 | gandotinib -0.019 | [4] 0.09 | doramapimod -0.035 | ispinesib -0.122

RBM10 isoform 5 (UniProt P98175)
inactive: [1] -0.023 | crizotinib 0.063 | [2] -0.051 | [3] 0.049 | duvelisib -0.066 | gandotinib 0.007 | tozasertib 0.079 | [4] 0.031 | doramapimod -0.009 | ispinesib 0.013

RAB43 (UniProt Q86YS6)
inactive: [1] 0.077 | crizotinib 0.011 | [2] 0.025 | [3] -0.004 | duvelisib 0.12 | gandotinib 0.022 | tozasertib 0.035 | [4] 0.002 | doramapimod 0.021 | ispinesib 0.036

RALGAPB (UniProt Q86X10)
inactive: [1] 0.263 | crizotinib -0.132 | [2] 0.014 | [3] -0.204 | duvelisib -0.222 | tozasertib -0.006 | [4] 0.014 | doramapimod 0.122 | ispinesib 0.073

RASA1 (UniProt P20936)
inactive: [1] 0.105 | crizotinib -0.098 | [2] 0.073 | [3] 0.041 | duvelisib -0.163 | tozasertib 0.251 | [4] 0.203 | doramapimod -0.257 | ispinesib -0.181

RBM33 (UniProt Q96EV2)
inactive: [1] -0.01 | crizotinib 0.058 | [2] -0.063 | [3] -0.077 | gandotinib 0.03 | [4] 0.043 | doramapimod -0.022 | ispinesib -0.085

RAB14 (UniProt P61106)
inactive: [1] 0.018 | crizotinib 0.034 | [2] 0.055 | [3] -0.023 | duvelisib 0.02 | gandotinib -0.01 | tozasertib -0.009 | [4] -0.014 | doramapimod -0.007 | ispinesib 0.098

RAB4B isoform 2 (UniProt P61018)
inactive: [1] 0.008 | crizotinib 0.111 | [2] 0.076 | [3] -0.028 | duvelisib 0.086 | gandotinib -0.017 | tozasertib -0.039 | [4] -0.02 | doramapimod 0.014 | ispinesib -0.005

RAB3C (UniProt Q96E17)
inactive: [1] -0.007 | crizotinib 0.067 | [2] 0.059 | [3] -0.105 | duvelisib 0.052 | gandotinib -0.004 | tozasertib -0.059 | [4] -0.068 | doramapimod -0.108 | ispinesib 0.046

RALGAPA1 isoform 6 (UniProt Q6GYQ0)
inactive: [1] 0.079 | crizotinib 0.001 | [2] -0.098 | [3] 0.134 | duvelisib 0.011 | tozasertib -0.026 | [4] -0.002 | doramapimod 0.091 | ispinesib -0.037

RAB3GAP1 (UniProt Q15042)
inactive: [1] 0.019 | crizotinib -0.071 | [2] -0.013 | [3] 0.216 | duvelisib 0.119 | gandotinib -0.021 | tozasertib 0.049 | [4] 0.084 | doramapimod 0.105 | ispinesib -0.206

RAPGEF6 isoform 4 (UniProt Q8TEU7)
inactive: [1] 0.027 | crizotinib -0.147 | [2] -0.048 | [3] 0.066 | gandotinib -0.032 | tozasertib -0.151 | doramapimod 0.008 | ispinesib -0.074

RBM17 (UniProt Q96I25)
inactive: [1] -0.043 | crizotinib -0.065 | [2] 0.106 | [3] 0.02 | gandotinib -0.031 | [4] 0.106 | doramapimod -0.028 | ispinesib 0.007

RASA2 (UniProt Q15283)
inactive: [1] 0.056 | crizotinib 0.117 | [2] 0.131 | [3] 0.55 | duvelisib -0.267 | gandotinib 0.013 | [4] 0.066 | doramapimod -0.012 | ispinesib -0.632

RAB2A (UniProt P61019)
inactive: [1] 0.006 | crizotinib 0.051 | [2] 0.07 | [3] -0.026 | duvelisib 0.043 | gandotinib -0.031 | tozasertib -0.046 | [4] -0.021 | doramapimod 0.001 | ispinesib 0.009

RAP1GAP isoform 4 (UniProt P47736)
inactive: [1] -0.043 | crizotinib -0.128 | [2] -0.022 | [3] -0.028 | duvelisib -0.153 | gandotinib -0.143 | tozasertib -0.012 | [4] 0.107 | doramapimod 0.107 | ispinesib -0.113

RAB35 (UniProt Q15286)
inactive: [1] 0.012 | crizotinib 0.015 | [2] 0.011 | [3] -0.069 | duvelisib 0.009 | gandotinib -0.027 | tozasertib -0.043 | [4] -0.025 | doramapimod -0.009 | ispinesib -0.058

RAD51AP1 (UniProt Q96B01)
inactive: [1] -0.023 | crizotinib 0.011 | [2] -0.025 | [3] 0.02 | duvelisib 0.02 | gandotinib 0.049 | tozasertib -0.019 | [4] -0.045 | doramapimod -0.024 | ispinesib -0.037

RAP1B (UniProt P61224)
inactive: [1] 0.006 | crizotinib -0.02 | [2] 0 | [3] -0.105 | duvelisib -0.005 | gandotinib -0.011 | tozasertib -0.024 | [4] -0.042 | doramapimod -0.005 | ispinesib 0.007

RACK1 (UniProt P63244)
inactive: [1] -0.038 | crizotinib 0.042 | [2] -0.07 | [3] -0.126 | duvelisib -0.003 | gandotinib -0.032 | tozasertib 0.004 | [4] 0.012 | doramapimod -0.053 | ispinesib 0.068

RAB9A (UniProt P51151)
inactive: [1] 0.007 | crizotinib -0.119 | [2] -0.006 | [3] -0.044 | gandotinib 0 | [4] 0.016 | doramapimod 0.018 | ispinesib -0.168

Taken from the entries so far (2 entries):
RACK1 (UniProt P63244)
inactive: [1] -0.038 | crizotinib 0.042 | [2] -0.07 | [3] -0.126 | duvelisib -0.003 | gandotinib -0.032 | tozasertib 0.004 | [4] 0.012 | doramapimod -0.053 | ispinesib 0.068

RAB9A (UniProt P51151)
inactive: [1] 0.007 | crizotinib -0.119 | [2] -0.006 | [3] -0.044 | gandotinib 0 | [4] 0.016 | doramapimod 0.018 | ispinesib -0.168

Further entries.

RBIS (UniProt Q8N0T1)
inactive: [1] -0.157 | crizotinib -0.097 | [2] -0.086 | [3] 0.069 | gandotinib 0.053 | [4] -0.045 | doramapimod 0.062 | ispinesib 0.009

RANBP10 (UniProt Q6VN20)
inactive: [1] -0.118 | crizotinib 0.008 | [2] -0.147 | [3] 0.01 | gandotinib 0.311 | tozasertib 0.094 | doramapimod -0.025 | ispinesib -0.067
